Experiment: Copper corrosion in water (weight loss of copper strip)
Settings: 0,05 Gewichts% compound in 75 ml hard water (DIN 51360), copper strip 24 h at 60°C; single determination
Protocol: 0,05 Gewichts% der zu testenden Verbindung werden in 75 ml hartem Wasser (DIN 51360) gelöst. Ein mit Siliciumcarbid poliertes und gewogenes Kupferblech (50 x 20 x 0,2 mm) wird vollständig in die Lösung getaucht und gut verschlossen 24 Stunden bei 60°C gelagert. Dann wird das Blech entnommen, 15 sec in 5 N Salzsäurelösung getaucht und mit deionisertem Wasser und Aceton gespült. Nach dem Trocknen wird das Kupferblech wieder gewogen.
Der Gewichtsverlust dient der Beurteilung des Korrosionsschutzes. Hoher Gewichtsverlust bedeutet starke Korrosion, geringer Gewichtsverlust guten Korrosionschutz.

Row | Structure (SMILES) | Gewichtsverlust
1 | O=C(O)C(Nc1nc(NC(C(=O)O)n2cncn2)nc(NC(C(=O)O)n2cncn2)n1)n1cncn1 (centres unmarked) [Beispiel 25] | 1,0 mg
2 | CC(Nc1nc(NC(C)n2cncn2)nc(NC(C)n2cncn2)n1)n1cncn1 (centres unmarked) [Beispiel 19] | 1,4 mg

— patent EP0682022B1, “Condensation products of melamine, benzotriazoles and aldehydes” (Ciba Specialty Chemicals Holding Inc., priority 1994, dated 1995)
